Measured values reported in PMC5216130, “Saturated palmitic acid induces myocardial inflammatory injuries through direct binding to TLR4 accessory protein MD2” (Nature Communications, 2017).
Results are given in words; binding and its absence hold for the method and conditions named. Binding seen in cells or lysates may run through a third protein. Some binding calls cover weakened binding; strength is not graded here.

By UniProt entry, the sequences of proteins in these tests, tags left out. Residues count along the entry.
UniProt Q9QUK6, residues 26-835: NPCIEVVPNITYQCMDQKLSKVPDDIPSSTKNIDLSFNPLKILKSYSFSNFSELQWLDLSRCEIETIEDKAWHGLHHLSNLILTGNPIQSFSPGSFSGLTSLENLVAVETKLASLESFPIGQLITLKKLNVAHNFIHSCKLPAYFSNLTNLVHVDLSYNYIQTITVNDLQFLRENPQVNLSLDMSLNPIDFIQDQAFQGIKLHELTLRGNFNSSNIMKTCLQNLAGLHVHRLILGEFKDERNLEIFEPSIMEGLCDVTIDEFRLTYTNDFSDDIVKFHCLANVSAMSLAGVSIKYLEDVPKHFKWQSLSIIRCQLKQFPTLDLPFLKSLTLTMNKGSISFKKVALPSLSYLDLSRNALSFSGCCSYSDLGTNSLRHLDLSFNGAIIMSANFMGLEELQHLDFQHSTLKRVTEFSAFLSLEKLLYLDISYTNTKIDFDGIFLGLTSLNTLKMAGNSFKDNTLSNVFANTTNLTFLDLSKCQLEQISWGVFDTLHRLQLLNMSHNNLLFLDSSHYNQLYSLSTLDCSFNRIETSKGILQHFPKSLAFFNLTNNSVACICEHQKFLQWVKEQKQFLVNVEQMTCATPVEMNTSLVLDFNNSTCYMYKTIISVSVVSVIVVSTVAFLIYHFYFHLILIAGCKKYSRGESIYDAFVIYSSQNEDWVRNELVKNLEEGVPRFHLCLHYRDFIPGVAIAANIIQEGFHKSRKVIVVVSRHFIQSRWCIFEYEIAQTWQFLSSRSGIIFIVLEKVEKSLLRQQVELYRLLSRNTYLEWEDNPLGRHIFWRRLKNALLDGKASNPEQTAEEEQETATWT
UniProt P22366: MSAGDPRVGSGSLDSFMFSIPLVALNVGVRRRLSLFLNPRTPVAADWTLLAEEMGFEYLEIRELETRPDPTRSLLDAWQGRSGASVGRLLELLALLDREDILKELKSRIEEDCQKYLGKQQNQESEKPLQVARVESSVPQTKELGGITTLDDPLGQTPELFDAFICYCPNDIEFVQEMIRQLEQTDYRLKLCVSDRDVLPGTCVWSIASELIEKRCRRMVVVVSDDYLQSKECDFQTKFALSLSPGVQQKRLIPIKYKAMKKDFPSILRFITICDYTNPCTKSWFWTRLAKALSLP

What was measured:
[1] = biological target: Toll-like receptor 4 (TLR4) (mouse (endogenous in mouse primary macrophages)) (UniProt Q9QUK6); experiment: co-IP; mouse primary macrophages stimulated with 100 uM PA (palmitic acid); cell extracts incubated with anti-MD2 (blot: TLR4) or anti-TLR4 (blot: MyD88) antibody 1 h, protein G beads at 4 C overnight
[2] = biological target: Toll-like receptor 4 (TLR4) (mouse (endogenous in mouse primary macrophages)) (UniProt Q9QUK6); experiment: condition: only macrophages pretreated with the MD2 inhibitor L6H9 (10 uM); co-IP; as a1, macrophages pretreated with the small-molecule MD2 inhibitor L6H9 (10 uM) before 100 uM PA
[3] = biological target: Toll-like receptor 4 (TLR4) (mouse (endogenous in mouse primary macrophages)) (UniProt Q9QUK6); experiment: condition: only macrophages pretreated with MD2-neutralizing antibody (anti-MD2, 100 ng ml^-1); co-IP; as a1, macrophages pretreated with MD2-neutralizing antibody (anti-MD2, 100 ng ml^-1) before 100 uM PA
[4] = biological target: T1, myeloid differentiation protein 2 (MD2) (mouse (endogenous in mouse primary macrophages)) (UniProt Q9JHF9); experiment: co-IP; mouse primary macrophages stimulated with 100 uM PA (palmitic acid); cell extracts incubated with anti-MD2 (blot: TLR4) or anti-TLR4 (blot: MyD88) antibody 1 h, protein G beads at 4 C overnight
T1 sequence: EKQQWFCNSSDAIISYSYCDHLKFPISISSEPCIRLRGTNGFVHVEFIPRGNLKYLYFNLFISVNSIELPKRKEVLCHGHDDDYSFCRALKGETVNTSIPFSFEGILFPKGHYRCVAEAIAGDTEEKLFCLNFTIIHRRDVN

[5] = biological target: T1, myeloid differentiation protein 2 (MD2) (mouse (endogenous in mouse primary macrophages)); experiment: co-IP; the experiment of a4 (wild-type primary macrophages, exogenous Fetuin A and PA), for the two endogenous proteins MD2 and TLR4

binding [1]	binding [2]	binding [3]	binding [4]	binding [5]	Substance
binds	no binding	no binding	–	–	MyD88 (from UniProt P22366 1-296)
–	–	–	binds	binds	Toll-like receptor 4 (TLR4) (from UniProt Q9QUK6 26-835)
